Measurements from paper PMC7819943, “Rice protein-binding microarrays: a tool to detect cis-acting elements near promoter regions in rice”.
The other results are listed elsewhere or left out.

Protein sequences, listed by entry. Tags and fused reporters are not part of them.
UniProt Q0JBA9, entry or part of it: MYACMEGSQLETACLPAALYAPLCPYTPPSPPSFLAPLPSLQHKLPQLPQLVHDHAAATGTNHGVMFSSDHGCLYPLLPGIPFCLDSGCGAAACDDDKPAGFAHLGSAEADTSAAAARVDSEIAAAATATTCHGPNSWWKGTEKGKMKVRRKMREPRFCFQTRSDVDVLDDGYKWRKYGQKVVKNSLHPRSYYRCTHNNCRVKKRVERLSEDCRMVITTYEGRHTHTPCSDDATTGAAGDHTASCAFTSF

Molecular target: OsWRKY34 (Oryza sativa, UniProt Q0JBA9 1-250)
Experiment: protein-binding microarray (RPBM); PBS, 2% BSA, 51.3 ng/ul salmon testes DNA, 50 uM zinc acetate, 200 nM TF, 25 C, 1 h; high values mean tight binding
Settings: protein: recombinant; tags: N-terminal polyhistidine and DsRed monomer fusion (pET32a); label: CyDye5-dUTP incorporated in the synthesized complementary strand; 3' TTTTT single-stranded linker to array surface; dsDNA, one strand shown
How it was run: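 The binding signal for each feature is its fluorescence intensity in arbitrary units. An Axon 4000B scanner was used to read a custom Agilent array that had been made double-stranded with Cy5-dUTP primer extension, blocked with 2% BSA, incubated at 25 °C for 1 h with 200 nM protein in PBS, 2% BSA, salmon testes DNA and 50 µM zinc acetate, and washed. The protein was an N-terminal polyhistidine–DsRed transcription factor fusion from E. coli BL21-CodonPlus, purified on Ni–NTA.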

Compared with “GGTGTGGTTTTATAAAATTTTTCTATATGAAAGTTGTTTACGGAGTCACCTAGTGCAG”, “TCCTAGCACCAACTCGCCACCCAATTAGGCCATTACCTTCCGGAGTCACCTAGTGCAG” is higher in binding signal: 8140 fluorescence intensity (a.u.) for the first, 9810 fluorescence intensity (a.u.) for the second.

Going from “AGCTCTACACATCGCTCTTCTTATCCAGTTAGCCATTTGTCGGAGTCACCTAGTGCAG” to “CTTATGGCCATCTATACATGCAACTGTGTTTTCATATTATCGGAGTCACCTAGTGCAG”, the binding signal rises from 8700 fluorescence intensity (a.u.) to 9690 fluorescence intensity (a.u.).

Going from “ACTAAATCCTCAACCACCTCATATGTTTATGTACCATCGACGGAGTCACCTAGTGCAG” to “GTTTTTTTTCGTGTGTACATTTTTCCAGCTGTTAAACGGTCGGAGTCACCTAGTGCAG”, the binding signal falls from 9900 fluorescence intensity (a.u.) to 8870 fluorescence intensity (a.u.).

First: TTTTGTAATGTTGTTGCTGTCCCCTGTCCTGAGCTATTATCGGAGTCACCTAGTGCAG
Second: ATCCATCTTCGTGACAGCTCCGAGCTTTCTCCTGGTTATTCGGAGTCACCTAGTGCAG
The binding signal of the first is higher: 11800 fluorescence intensity (a.u.) for the first, 8940 fluorescence intensity (a.u.) for the second.

Compared with “TTTATTACATGTCAACTAGTTAAATGGTTAATTTTTTTTTCGGAGTCACCTAGTGCAG”, “ATATATTCCTTATATGCGTTCCTATTTCCTTGTTTTTATCCGGAGTCACCTAGTGCAG” is higher in binding signal: 8580 fluorescence intensity (a.u.) for the first, 11300 fluorescence intensity (a.u.) for the second.

Compared with “CTACACGAGAATGTAATGTTTCTCTCTCTCTTTTTTTTTTCGGAGTCACCTAGTGCAG”, “GTTTTTGACCACGGTTCATTCGTATAATTAGTTTTTGCAACGGAGTCACCTAGTGCAG” is higher in binding signal: 8570 fluorescence intensity (a.u.) for the first, 10600 fluorescence intensity (a.u.) for the second.

Going from “CATTTCAGAGAGAGAGAGGGGTAGTGGCCAGTGGGGTGTACGGAGTCACCTAGTGCAG” to “ATTTCGATGGGTTTTATCAAAATTCAAATTTGAATTGATACGGAGTCACCTAGTGCAG”, the binding signal rises from 8090 fluorescence intensity (a.u.) to 8170 fluorescence intensity (a.u.).

Going from “AGTCGCAGTGGTTTTGGTTGGTTGGTTGATTACATTTTGACGGAGTCACCTAGTGCAG” to “TCTCTTTCTCTCTCTCCTCTTCTTCCTTGGCGAGTTGTGCCGGAGTCACCTAGTGCAG”, the binding signal falls from 20000 fluorescence intensity (a.u.) to 8080 fluorescence intensity (a.u.).

First: CCTCTGAGTCTATCTCTCTCATTTGATTCCTATGTTTTTCCGGAGTCACCTAGTGCAG
Second: TCCTTTGGTCATTTTGTCTCTGTGTTCCATGTGTTAAATTCGGAGTCACCTAGTGCAG
The binding signal of the first is higher: 11800 fluorescence intensity (a.u.) for the first, 8390 fluorescence intensity (a.u.) for the second.

Compared with “TACATACTTTTTTTTCCTCATATGATTACGTTCCATAAATCGGAGTCACCTAGTGCAG”, “GGTGGGGTGGCGGAGGTCATGGCGGCCAAGGTCGTCACCGCGGAGTCACCTAGTGCAG” is lower in binding signal: 9030 fluorescence intensity (a.u.) for the first, 8420 fluorescence intensity (a.u.) for the second.

First: CTGATGAATCTGCAAGCACTACTCGTACGATCCAGCTCTCCGGAGTCACCTAGTGCAG
Second: ATCTCTTCTTAGTTTTCTCATGCCAACTCGCCAGTTGACTCGGAGTCACCTAGTGCAG
The binding signal of the first is higher: 8810 fluorescence intensity (a.u.) for the first, 8380 fluorescence intensity (a.u.) for the second.

First: CATTGGCCTTGGTTAGTTAACATTACATTATTAATACACACGGAGTCACCTAGTGCAG
Second: TTATTCCTTGTTTCCCGATTTTTTTTTCGGACTCCATCTCCGGAGTCACCTAGTGCAG
The binding signal of the first is higher: 8760 fluorescence intensity (a.u.) for the first, 8350 fluorescence intensity (a.u.) for the second.

Compared with “TCAACCGTATCTGACGCCTGCATTTCCTCTACCAGCCAAGCGGAGTCACCTAGTGCAG”, “ATCATGTGTTCCTTTCTCAGTCCTCGGCCGTATTGCTTGTCGGAGTCACCTAGTGCAG” is higher in binding signal: 9510 fluorescence intensity (a.u.) for the first, 12300 fluorescence intensity (a.u.) for the second.

First: ACCCTCGGACCGGTTTTTTTACTATGCCTCAAACATGTTCCGGAGTCACCTAGTGCAG
Second: TTCGACGTATTGCCCTCGTGCGGACCGCACCGTTTCCTTGCGGAGTCACCTAGTGCAG
The binding signal of the first is higher: 9800 fluorescence intensity (a.u.) for the first, 8780 fluorescence intensity (a.u.) for the second.

Compared with “TCGTTCGATTTCTTGGTCCATTCCTTGTCCGTAGTGTTCTCGGAGTCACCTAGTGCAG”, “TTGACTTTGTTTAAAGTCAAACTGCTTCAAGTTTGACTAACGGAGTCACCTAGTGCAG” is lower in binding signal: 10900 fluorescence intensity (a.u.) for the first, 9550 fluorescence intensity (a.u.) for the second.

First: CTCCAGGTTGGCTCACTTTTGCTTTGCTTTTTGGCTCATGCGGAGTCACCTAGTGCAG
Second: AGCTTGCTGCTATCCTGCGCCATCTCCGAGTCTCGGTGTTCGGAGTCACCTAGTGCAG
The binding signal of the first is lower: 8470 fluorescence intensity (a.u.) for the first, 8990 fluorescence intensity (a.u.) for the second.

Compared with “TCTACACACACAAACTTTCAACTTTTCTGTCACATCGTTCCGGAGTCACCTAGTGCAG”, “GTGTGATGATGAGTGTGGCGGCTGCGGTGTCGATGTCCTCCGGAGTCACCTAGTGCAG” is lower in binding signal: 9290 fluorescence intensity (a.u.) for the first, 8030 fluorescence intensity (a.u.) for the second.

Going from “GTAGCCATACCCACCTGCTGCCGATCCCCACCTGCTACCGCGGAGTCACCTAGTGCAG” to “ACAGGTATTCCTTCACATATCTTCACATCAACCTCCTCTCCGGAGTCACCTAGTGCAG”, the binding signal falls from 11000 fluorescence intensity (a.u.) to 8120 fluorescence intensity (a.u.).

Compared with “AATCATCGCCTCATCGGCTCCACGCTCCTCGTCTCTCTCGCGGAGTCACCTAGTGCAG”, “GACATGACTGGACTAACTTGGATCATATTGCTGCTAGCTACGGAGTCACCTAGTGCAG” is lower in binding signal: 9280 fluorescence intensity (a.u.) for the first, 8850 fluorescence intensity (a.u.) for the second.

Going from “GTAACTGGCCTCTTTTCTCATGGCTAAATTTCTTTGTTCTCGGAGTCACCTAGTGCAG” to “ACCTCGAGCTCCTACTCTCCCCGGTGATCTCTCGCTTCGACGGAGTCACCTAGTGCAG”, the binding signal falls from 11200 fluorescence intensity (a.u.) to 9510 fluorescence intensity (a.u.).

First: TGCCTACCGCGAGGCGCGACTCATACCTCGCTCGTCTCACCGGAGTCACCTAGTGCAG
Second: GGGGAATGAGGCGGGGAATGGGGCACCGAGGTCGCCACAACGGAGTCACCTAGTGCAG
The binding signal of the first is lower: 9870 fluorescence intensity (a.u.) for the first, 11300 fluorescence intensity (a.u.) for the second.

Compared with “TCTACTTTGACCCTTCTTGGTGCCCCTTGCTGCAACCAACCGGAGTCACCTAGTGCAG”, “CGTGGGCACAGTGGCGTCCATCATGGCGTTGGTTGACCAGCGGAGTCACCTAGTGCAG” is higher in binding signal: 8710 fluorescence intensity (a.u.) for the first, 9450 fluorescence intensity (a.u.) for the second.

Going from “ATATACACGGTACACCATGTCGTCGCCGCAGGCCAAATCCCGGAGTCACCTAGTGCAG” to “ATATTGAAATTTTCTGTTGCTATCTTCTCTAGACAATATACGGAGTCACCTAGTGCAG”, the binding signal rises from 8890 fluorescence intensity (a.u.) to 10900 fluorescence intensity (a.u.).

Going from “TAGCAGTGGTCTCCGTTTACATGTCCTTATAACTCATCTACGGAGTCACCTAGTGCAG” to “GTGTTCGTTTTGGATTTTGGTTTCAGTTTAGTATATGCACCGGAGTCACCTAGTGCAG”, the binding signal rises from 8410 fluorescence intensity (a.u.) to 11300 fluorescence intensity (a.u.).

Going from “CTTTCCTACTTAACTCTTTATGTTACTCCGTATTCTGTTTCGGAGTCACCTAGTGCAG” to “CGTCCGGCCGCGAAACCGAGCCTTCTGACCACCGCCGAAACGGAGTCACCTAGTGCAG”, the binding signal falls from 12600 fluorescence intensity (a.u.) to 8050 fluorescence intensity (a.u.).

Compared with “AAGAACACAACACACTTGATATATATACCTCACACACACTCGGAGTCACCTAGTGCAG”, “TCCTACACCACCCCGTTCTCGCGCCCATCGATCCAACCGACGGAGTCACCTAGTGCAG” is higher in binding signal: 8060 fluorescence intensity (a.u.) for the first, 8920 fluorescence intensity (a.u.) for the second.

Going from “TTGGGTATTATGTATGGTGTTACATAGGGTGTTTGGGCACCGGAGTCACCTAGTGCAG” to “CTTCGCCCTGACTCTTGCGGTTTGTTCCACTTTGAACTTTCGGAGTCACCTAGTGCAG”, the binding signal falls from 10900 fluorescence intensity (a.u.) to 9380 fluorescence intensity (a.u.).
